Experimental data: PubChem BioAssay AID1259405 (NCATS, 2018)

Aim: 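Silenced genes that increase secreted GFP made by CHO cells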 (primary screen)
Cell system: Chinese hamster CHO-K1 ovary cells with stable secreted eGFP expression
Reagent: single siRNA against mouse genes, 0.8 pmol siRNA per well (2 µl of 400 nM stock)
Timing: 3 days
Measured: 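Percent of the per-plate non-targeting control median for intracellular GFP per well by laser scanning cytometry and for cell viability by ATP luminescence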
Scale: GFP, % of control: higher = more GFP per well, higher productivity; viability (ATP), % of control: higher = more viable cells (more ATP)
Call rule: 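Called active when intracellular GFP, relative to negative control, is at or above 120%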
In all, the deposit lists about 50,000 reagents; shown is a random part of them. In the full data, about 4,000 (8%) got an active call. 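Mouse siRNA library applied to hamster cells; one well for each siRNA.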 No sequences are given here.

Target gene | PubChem SID | GFP, % of control | viability (ATP), % of control | activity call
Tex2 (GeneID 21763) | SID363556488 | 51.6 | 74.8 | inactive
Tex2 (GeneID 21763) | SID363586938 | 2.77 | 279 | inactive
Tex2 (GeneID 21763) | SID363589046 | 190 | 108 | active
Or12d14-ps1 (GeneID 257948) | SID363544424 | 69.8 | 76.2 | inactive
Or12d14-ps1 (GeneID 257948) | SID363550752 | 66.1 | 73.4 | inactive
Or12d14-ps1 (GeneID 257948) | SID363557301 | 45.6 | 47 | inactive
Ptprz1 (GeneID 19283) | SID363569045 | 98.8 | 92.6 | inactive
Ptprz1 (GeneID 19283) | SID363583477 | 73.2 | 78 | inactive
Rassf5 (GeneID 54354) | SID363545137 | 29 | 39.4 | inactive
Rassf5 (GeneID 54354) | SID363548650 | 79.4 | 84.5 | inactive
Rassf5 (GeneID 54354) | SID363562456 | 49.7 | 49.7 | inactive
Rhog (GeneID 56212) | SID363570310 | 153 | 59.5 | active
Rhog (GeneID 56212) | SID363576646 | 80.1 | 67.4 | inactive
Rhog (GeneID 56212) | SID363579814 | 76.8 | 54.8 | inactive
Zbtb7b (GeneID 22724) | SID363569298 | 74.3 | 86.3 | inactive
Zbtb7b (GeneID 22724) | SID363583730 | 63.4 | 77.4 | inactive
Obi1 (GeneID 72486) | SID363543737 | 40.6 | 27.3 | inactive
Obi1 (GeneID 72486) | SID363551473 | 152 | 56.5 | active
Obi1 (GeneID 72486) | SID363559078 | 89.8 | 81.2 | inactive
Tmem37 (GeneID 170706) | SID363554596 | 73 | 55.1 | inactive
Tmem37 (GeneID 170706) | SID363568043 | 185 | 66.5 | active
Tmem37 (GeneID 170706) | SID363586102 | 131 | 77.8 | active
Klrb1a (GeneID 17057) | SID363544244 | 34.9 | 29.1 | inactive
Klrb1a (GeneID 17057) | SID363550572 | 92.6 | 78 | inactive
Klrb1a (GeneID 17057) | SID363557121 | 61.7 | 64.2 | inactive
Or55b4 (GeneID 257926) | SID363544832 | 82.7 | 54 | inactive
Or55b4 (GeneID 257926) | SID363551160 | 81 | 87.6 | inactive
Or55b4 (GeneID 257926) | SID363557709 | 63.2 | 80.1 | inactive
Sdr16c5 (GeneID 242285) | SID363574972 | 111 | 104 | inactive
Sdr16c5 (GeneID 242285) | SID363580604 | 28.7 | 33 | inactive
Sdr16c5 (GeneID 242285) | SID363582716 | 61.3 | 49.7 | inactive
Sgcd (GeneID 24052) | SID363554929 | 119 | 100 | inactive
Sgcd (GeneID 24052) | SID363568376 | 150 | 70.3 | active
Sgcd (GeneID 24052) | SID363586435 | 103 | 103 | inactive
Sh3rf3 (GeneID 237353) | SID363542394 | 114 | 90.2 | inactive
Sh3rf3 (GeneID 237353) | SID363551885 | 73.3 | 59.2 | inactive
Sh3rf3 (GeneID 237353) | SID363559490 | 58.9 | 60.9 | inactive
Fam204a (GeneID 76539) | SID363539752 | 66.9 | 85.4 | inactive
Fam204a (GeneID 76539) | SID363561053 | 83.4 | 72 | inactive
Fam204a (GeneID 76539) | SID363565143 | 78.5 | 75.5 | inactive
Ttc3 (GeneID 22129) | SID363553751 | 61.2 | 70.3 | inactive
Ttc3 (GeneID 22129) | SID363561708 | 60.8 | 49.2 | inactive
Ttc3 (GeneID 22129) | SID363565446 | 99.8 | 78.1 | inactive
Ankrd9 (GeneID 74251) | SID363546691 | 65.8 | 40.9 | inactive
Ankrd9 (GeneID 74251) | SID363548447 | 70.9 | 76.7 | inactive
Ankrd9 (GeneID 74251) | SID363560625 | 108 | 118 | inactive
Ppp1r14a (GeneID 68458) | SID363575202 | 106 | 89.5 | inactive
Ppp1r14a (GeneID 68458) | SID363580834 | 88.6 | 60.3 | inactive
Ppp1r14a (GeneID 68458) | SID363582946 | 75.4 | 73.6 | inactive
Tmem171 (GeneID 380863) | SID363581949 | 97.1 | 128 | inactive
Tmem171 (GeneID 380863) | SID363589443 | 67.4 | 64.5 | inactive
Josd1 (GeneID 74158) | SID363540608 | 99.7 | 89.4 | inactive
Josd1 (GeneID 74158) | SID363543059 | 42.3 | 71.6 | inactive
Josd1 (GeneID 74158) | SID363552552 | 76 | 66.8 | inactive
Dgkk (GeneID 331374) | SID363547371 | 208 | 64.1 | active
Dgkk (GeneID 331374) | SID363558140 | 151 | 137 | active
Dgkk (GeneID 331374) | SID363559898 | 84.8 | 71.2 | inactive
Lrit1 (GeneID 239037) | SID363544319 | 45.7 | 45.1 | inactive
Lrit1 (GeneID 239037) | SID363550647 | 64.9 | 83.7 | inactive
Lrit1 (GeneID 239037) | SID363557196 | 95 | 93.2 | inactive
Ndor1 (GeneID 78797) | SID363572909 | 77.1 | 114 | inactive
Ndor1 (GeneID 78797) | SID363577485 | 96.4 | 73.7 | inactive
Ndor1 (GeneID 78797) | SID363581005 | 79.8 | 70.9 | inactive
Or5w20 (GeneID 258633) | SID363544601 | 157 | 52 | active
Or5w20 (GeneID 258633) | SID363550929 | 77.8 | 90.8 | inactive
Or5w20 (GeneID 258633) | SID363557478 | 46.3 | 53 | inactive
Sult2a2 (GeneID 100043194) | SID363545270 | 78.2 | 88.3 | inactive
Sult2a2 (GeneID 100043194) | SID363548783 | 45.9 | 69.6 | inactive
Sult2a2 (GeneID 100043194) | SID363562589 | 75.3 | 85 | inactive

The list goes on (4 carried over from the part before).
Target gene | PubChem SID | GFP, % of control | viability (ATP), % of control | activity call
Or5w20 (GeneID 258633) | SID363557478 | 46.3 | 53 | inactive
Sult2a2 (GeneID 100043194) | SID363545270 | 78.2 | 88.3 | inactive
Sult2a2 (GeneID 100043194) | SID363548783 | 45.9 | 69.6 | inactive
Sult2a2 (GeneID 100043194) | SID363562589 | 75.3 | 85 | inactive
Dennd4a (GeneID 102442) | SID363539870 | 80.1 | 89.7 | inactive
Dennd4a (GeneID 102442) | SID363561171 | 112 | 98.5 | inactive
Dennd4a (GeneID 102442) | SID363564207 | 80.7 | 56.5 | inactive
Whamm (GeneID 434204) | SID363562068 | 60.3 | 55.7 | inactive
Whamm (GeneID 434204) | SID363567206 | 61.7 | 88.2 | inactive
Whamm (GeneID 434204) | SID363584563 | 64 | 80.7 | inactive
Exd1 (GeneID 241624) | SID363552307 | 56.2 | 63.8 | inactive
Exd1 (GeneID 241624) | SID363585443 | 88 | 101 | inactive
Exd1 (GeneID 241624) | SID363585794 | 114 | 121 | inactive
Lats2 (GeneID 50523) | SID363570866 | 76.3 | 64.2 | inactive
Tbcb (GeneID 66411) | SID363572787 | 73.1 | 101 | inactive
Tbcb (GeneID 66411) | SID363578067 | 83.7 | 81.2 | inactive
Tbcb (GeneID 66411) | SID363582291 | 114 | 116 | inactive
Dusp3 (GeneID 72349) | SID363575026 | 85 | 67.9 | inactive
Dusp3 (GeneID 72349) | SID363580658 | 69.9 | 68.2 | inactive
Dusp3 (GeneID 72349) | SID363582770 | 138 | 85.4 | active
Dctn6 (GeneID 22428) | SID363572355 | 86.5 | 67.6 | inactive
Dctn6 (GeneID 22428) | SID363574115 | 56.2 | 82.1 | inactive
Mdfic (GeneID 16543) | SID363540240 | 39.3 | 54 | inactive
Mdfic (GeneID 16543) | SID363541992 | 79.2 | 68.7 | inactive
Mdfic (GeneID 16543) | SID363566908 | 34.1 | 41.2 | inactive
Esrra (GeneID 26379) | SID363581756 | 66.6 | 63.8 | inactive
Esrra (GeneID 26379) | SID363589250 | 75.8 | 70.3 | inactive
Sike1 (GeneID 66641) | SID363552181 | 71.3 | 63.1 | inactive
Sike1 (GeneID 66641) | SID363585317 | 65.6 | 81.6 | inactive
Sike1 (GeneID 66641) | SID363585668 | 132 | 132 | active
Lgals2 (GeneID 107753) | SID363541291 | 42.9 | 50 | inactive
Lgals2 (GeneID 107753) | SID363555918 | 36.1 | 34.4 | inactive
Lgals2 (GeneID 107753) | SID363566207 | 63.7 | 70 | inactive
Trpv1 (GeneID 193034) | SID363547775 | 45.6 | 45.5 | inactive
Trpv1 (GeneID 193034) | SID363558544 | 13.1 | 18.3 | inactive
Trpv1 (GeneID 193034) | SID363560302 | 105 | 144 | inactive
Triqk (GeneID 208820) | SID363546894 | 72.1 | 64.6 | inactive
Triqk (GeneID 208820) | SID363549706 | 76.1 | 101 | inactive
Triqk (GeneID 208820) | SID363587760 | 78.8 | 89.4 | inactive
Plp1 (GeneID 18823) | SID363554794 | 60.1 | 60.4 | inactive
Plp1 (GeneID 18823) | SID363568241 | 89.6 | 77 | inactive
Plp1 (GeneID 18823) | SID363586300 | 43 | 48.2 | inactive
